Tested on: M. smegmatis membranes
Assay: Binding of CFZ to isolated M. smegmatis membranes

`CC(C)N=c1cc2n(-c3ccc(Cl)cc3)c3ccccc3nc-2cc1Nc1ccc(Cl)cc1` [CFZ, 3-(4-chloroanilino)-10-(4-chlorophenyl)-2,10-dihydro-2-(isopropylimino)-phenazine] was tested, and the “CFZ remaining in solution associated with membrane after centrifugation” value (60 μg membranes/0.5 mL, 0.1 M HEPES pH 7.0) was “about 50 μM”, the “CFZ associated with membrane per lipid” value (assuming equal lipid/protein weight, 600 Da lipid) was 0.5-1.0 mole of CFZ per mole of lipid and the “proportion of membrane-associated CFZ that is cationic” value (end of experiment, pH 7.0) was “approximately 80%”.
